This is one part of the list.

The chains behind the UniProt entries cited, without tags or fusion partners. Where a name states a change or a piece, a line headed by the entry shows the natural chain unless it says otherwise.
UniProt Q9H944: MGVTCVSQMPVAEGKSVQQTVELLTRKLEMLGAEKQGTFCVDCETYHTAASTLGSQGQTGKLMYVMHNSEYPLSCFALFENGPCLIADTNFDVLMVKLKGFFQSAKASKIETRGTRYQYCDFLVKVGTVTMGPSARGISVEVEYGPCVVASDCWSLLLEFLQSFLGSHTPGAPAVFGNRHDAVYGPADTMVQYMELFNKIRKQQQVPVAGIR
UniProt Q9HCE5: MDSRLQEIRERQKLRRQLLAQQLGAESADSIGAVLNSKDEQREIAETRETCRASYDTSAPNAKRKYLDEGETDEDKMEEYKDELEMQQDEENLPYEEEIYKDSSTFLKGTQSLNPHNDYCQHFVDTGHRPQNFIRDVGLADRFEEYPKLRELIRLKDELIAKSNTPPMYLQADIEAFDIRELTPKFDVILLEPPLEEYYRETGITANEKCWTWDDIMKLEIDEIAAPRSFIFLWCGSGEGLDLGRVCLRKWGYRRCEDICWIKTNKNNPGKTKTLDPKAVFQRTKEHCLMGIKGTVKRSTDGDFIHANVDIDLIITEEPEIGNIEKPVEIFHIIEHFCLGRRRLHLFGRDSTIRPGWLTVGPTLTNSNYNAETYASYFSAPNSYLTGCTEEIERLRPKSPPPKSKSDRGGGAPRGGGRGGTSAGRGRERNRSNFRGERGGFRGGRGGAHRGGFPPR
UniProt O43513: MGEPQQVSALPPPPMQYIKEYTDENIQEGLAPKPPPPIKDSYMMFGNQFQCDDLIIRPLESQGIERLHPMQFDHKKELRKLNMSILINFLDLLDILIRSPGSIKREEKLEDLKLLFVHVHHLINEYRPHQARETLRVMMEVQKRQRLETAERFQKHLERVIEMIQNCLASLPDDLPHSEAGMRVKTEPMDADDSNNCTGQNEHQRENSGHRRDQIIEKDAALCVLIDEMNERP
UniProt P23368: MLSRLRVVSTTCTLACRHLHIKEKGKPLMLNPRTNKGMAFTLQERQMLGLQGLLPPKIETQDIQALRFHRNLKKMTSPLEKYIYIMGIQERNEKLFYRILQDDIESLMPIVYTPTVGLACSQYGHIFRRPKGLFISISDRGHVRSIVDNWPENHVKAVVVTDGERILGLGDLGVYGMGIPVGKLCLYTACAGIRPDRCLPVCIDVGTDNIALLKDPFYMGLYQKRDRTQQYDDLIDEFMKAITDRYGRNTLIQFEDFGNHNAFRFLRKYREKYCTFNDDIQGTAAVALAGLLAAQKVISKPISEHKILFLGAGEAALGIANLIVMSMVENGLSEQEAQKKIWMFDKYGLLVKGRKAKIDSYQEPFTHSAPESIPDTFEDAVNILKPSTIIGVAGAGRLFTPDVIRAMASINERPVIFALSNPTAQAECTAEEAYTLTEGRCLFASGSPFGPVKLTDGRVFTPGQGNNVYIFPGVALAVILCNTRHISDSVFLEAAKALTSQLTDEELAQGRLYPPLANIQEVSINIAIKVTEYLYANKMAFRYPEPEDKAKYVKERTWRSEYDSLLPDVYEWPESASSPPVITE
UniProt Q96IZ6: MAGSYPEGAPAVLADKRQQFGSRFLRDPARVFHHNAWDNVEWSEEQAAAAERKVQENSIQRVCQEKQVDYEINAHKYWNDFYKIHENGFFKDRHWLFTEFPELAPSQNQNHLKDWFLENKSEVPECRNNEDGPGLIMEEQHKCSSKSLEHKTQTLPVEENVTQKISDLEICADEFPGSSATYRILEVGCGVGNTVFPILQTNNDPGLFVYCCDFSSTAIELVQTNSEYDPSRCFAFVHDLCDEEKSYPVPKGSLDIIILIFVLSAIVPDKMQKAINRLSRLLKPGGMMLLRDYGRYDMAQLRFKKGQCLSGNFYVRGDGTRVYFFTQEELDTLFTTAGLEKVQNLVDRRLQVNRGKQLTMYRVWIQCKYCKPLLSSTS
UniProt O95140: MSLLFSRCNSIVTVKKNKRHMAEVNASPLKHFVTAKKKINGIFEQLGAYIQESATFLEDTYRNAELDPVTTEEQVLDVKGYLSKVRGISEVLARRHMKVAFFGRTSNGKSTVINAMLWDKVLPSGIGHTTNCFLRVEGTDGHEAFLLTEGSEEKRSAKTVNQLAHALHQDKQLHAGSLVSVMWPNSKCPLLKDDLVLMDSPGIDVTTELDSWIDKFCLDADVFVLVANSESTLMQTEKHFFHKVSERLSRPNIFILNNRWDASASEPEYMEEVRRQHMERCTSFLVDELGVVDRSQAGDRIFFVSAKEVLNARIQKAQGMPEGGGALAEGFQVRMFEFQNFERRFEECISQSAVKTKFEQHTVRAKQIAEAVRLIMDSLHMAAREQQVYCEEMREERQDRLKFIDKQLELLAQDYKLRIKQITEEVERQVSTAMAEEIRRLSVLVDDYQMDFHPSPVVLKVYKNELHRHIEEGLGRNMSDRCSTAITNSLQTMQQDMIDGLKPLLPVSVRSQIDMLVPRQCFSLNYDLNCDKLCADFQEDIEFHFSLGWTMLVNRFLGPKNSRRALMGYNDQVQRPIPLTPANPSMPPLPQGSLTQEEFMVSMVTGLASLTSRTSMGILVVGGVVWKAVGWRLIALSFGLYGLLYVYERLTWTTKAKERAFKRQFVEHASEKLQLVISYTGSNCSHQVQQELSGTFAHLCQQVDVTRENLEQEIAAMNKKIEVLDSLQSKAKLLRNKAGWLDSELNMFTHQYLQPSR
UniProt Q96G25: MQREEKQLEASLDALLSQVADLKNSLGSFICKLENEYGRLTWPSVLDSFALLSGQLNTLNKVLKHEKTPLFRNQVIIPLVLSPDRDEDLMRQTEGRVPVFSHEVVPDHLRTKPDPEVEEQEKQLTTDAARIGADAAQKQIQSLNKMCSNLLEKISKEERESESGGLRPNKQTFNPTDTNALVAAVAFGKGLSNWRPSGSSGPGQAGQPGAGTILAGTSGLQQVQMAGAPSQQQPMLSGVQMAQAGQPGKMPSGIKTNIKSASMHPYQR
UniProt Q86W50: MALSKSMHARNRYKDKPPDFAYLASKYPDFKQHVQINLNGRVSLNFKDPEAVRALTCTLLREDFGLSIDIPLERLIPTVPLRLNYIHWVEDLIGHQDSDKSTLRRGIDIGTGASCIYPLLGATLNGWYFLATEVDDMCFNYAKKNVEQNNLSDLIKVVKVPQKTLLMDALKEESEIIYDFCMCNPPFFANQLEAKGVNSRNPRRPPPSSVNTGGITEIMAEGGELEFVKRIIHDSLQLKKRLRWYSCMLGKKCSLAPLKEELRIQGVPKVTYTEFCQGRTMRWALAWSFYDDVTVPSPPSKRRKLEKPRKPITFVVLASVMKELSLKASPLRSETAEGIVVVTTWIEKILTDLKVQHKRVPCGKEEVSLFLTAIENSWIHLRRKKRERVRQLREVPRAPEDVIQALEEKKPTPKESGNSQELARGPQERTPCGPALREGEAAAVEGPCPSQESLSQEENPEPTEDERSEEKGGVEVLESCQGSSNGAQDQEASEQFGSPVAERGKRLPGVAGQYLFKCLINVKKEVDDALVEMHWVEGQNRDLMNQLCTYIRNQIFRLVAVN
UniProt Q06413, whole entry, looked up: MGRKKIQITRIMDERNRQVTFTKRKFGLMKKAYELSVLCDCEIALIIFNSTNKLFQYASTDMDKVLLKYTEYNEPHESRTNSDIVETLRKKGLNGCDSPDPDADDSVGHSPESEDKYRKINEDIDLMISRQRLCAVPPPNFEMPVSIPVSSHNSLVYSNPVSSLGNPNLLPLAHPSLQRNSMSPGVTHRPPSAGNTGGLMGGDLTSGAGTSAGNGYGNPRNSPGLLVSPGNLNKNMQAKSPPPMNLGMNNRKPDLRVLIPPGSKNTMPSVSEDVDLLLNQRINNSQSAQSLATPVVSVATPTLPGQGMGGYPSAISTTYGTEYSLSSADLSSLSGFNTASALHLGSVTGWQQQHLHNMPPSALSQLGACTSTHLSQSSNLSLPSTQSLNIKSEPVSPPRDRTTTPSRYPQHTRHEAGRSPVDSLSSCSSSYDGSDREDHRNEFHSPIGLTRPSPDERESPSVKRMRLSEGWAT
UniProt P50579: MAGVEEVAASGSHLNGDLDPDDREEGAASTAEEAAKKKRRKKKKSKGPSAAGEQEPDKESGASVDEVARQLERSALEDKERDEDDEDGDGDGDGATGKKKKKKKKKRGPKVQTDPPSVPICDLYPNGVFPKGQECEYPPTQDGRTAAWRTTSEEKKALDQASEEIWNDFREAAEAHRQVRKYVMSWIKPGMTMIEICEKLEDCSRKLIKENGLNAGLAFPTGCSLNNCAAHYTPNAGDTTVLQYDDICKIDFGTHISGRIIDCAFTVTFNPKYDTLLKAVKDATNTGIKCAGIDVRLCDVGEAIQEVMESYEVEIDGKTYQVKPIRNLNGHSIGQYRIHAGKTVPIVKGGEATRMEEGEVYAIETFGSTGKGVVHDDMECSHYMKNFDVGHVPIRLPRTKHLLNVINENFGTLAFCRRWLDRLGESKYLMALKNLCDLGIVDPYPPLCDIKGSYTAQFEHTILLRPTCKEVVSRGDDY
UniProt Q96RN5: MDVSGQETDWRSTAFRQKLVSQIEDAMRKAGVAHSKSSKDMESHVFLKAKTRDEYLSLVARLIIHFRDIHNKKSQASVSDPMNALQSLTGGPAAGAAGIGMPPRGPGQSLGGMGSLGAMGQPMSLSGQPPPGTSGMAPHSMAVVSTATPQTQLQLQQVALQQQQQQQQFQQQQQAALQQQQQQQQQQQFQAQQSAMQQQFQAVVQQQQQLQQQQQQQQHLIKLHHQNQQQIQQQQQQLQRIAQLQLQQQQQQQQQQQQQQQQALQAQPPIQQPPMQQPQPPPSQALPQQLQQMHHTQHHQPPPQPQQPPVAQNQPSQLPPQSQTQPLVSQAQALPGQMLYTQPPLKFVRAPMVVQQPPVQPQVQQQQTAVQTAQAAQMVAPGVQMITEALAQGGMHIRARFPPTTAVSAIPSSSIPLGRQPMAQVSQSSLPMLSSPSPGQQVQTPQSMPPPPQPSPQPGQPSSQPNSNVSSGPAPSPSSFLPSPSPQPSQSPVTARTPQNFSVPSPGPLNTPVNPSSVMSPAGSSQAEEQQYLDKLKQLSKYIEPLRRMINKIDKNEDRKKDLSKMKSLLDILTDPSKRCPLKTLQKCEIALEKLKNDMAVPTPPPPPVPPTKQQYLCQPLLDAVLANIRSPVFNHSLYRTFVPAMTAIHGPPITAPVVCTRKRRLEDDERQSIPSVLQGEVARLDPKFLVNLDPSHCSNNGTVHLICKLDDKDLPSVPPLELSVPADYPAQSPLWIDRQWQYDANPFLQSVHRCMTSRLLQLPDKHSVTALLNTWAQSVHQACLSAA
UniProt Q8NI22: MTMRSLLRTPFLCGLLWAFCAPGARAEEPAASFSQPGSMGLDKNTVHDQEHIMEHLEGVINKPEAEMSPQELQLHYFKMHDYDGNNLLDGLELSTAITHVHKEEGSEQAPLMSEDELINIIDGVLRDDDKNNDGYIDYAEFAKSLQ
UniProt P49736, whole entry, looked up: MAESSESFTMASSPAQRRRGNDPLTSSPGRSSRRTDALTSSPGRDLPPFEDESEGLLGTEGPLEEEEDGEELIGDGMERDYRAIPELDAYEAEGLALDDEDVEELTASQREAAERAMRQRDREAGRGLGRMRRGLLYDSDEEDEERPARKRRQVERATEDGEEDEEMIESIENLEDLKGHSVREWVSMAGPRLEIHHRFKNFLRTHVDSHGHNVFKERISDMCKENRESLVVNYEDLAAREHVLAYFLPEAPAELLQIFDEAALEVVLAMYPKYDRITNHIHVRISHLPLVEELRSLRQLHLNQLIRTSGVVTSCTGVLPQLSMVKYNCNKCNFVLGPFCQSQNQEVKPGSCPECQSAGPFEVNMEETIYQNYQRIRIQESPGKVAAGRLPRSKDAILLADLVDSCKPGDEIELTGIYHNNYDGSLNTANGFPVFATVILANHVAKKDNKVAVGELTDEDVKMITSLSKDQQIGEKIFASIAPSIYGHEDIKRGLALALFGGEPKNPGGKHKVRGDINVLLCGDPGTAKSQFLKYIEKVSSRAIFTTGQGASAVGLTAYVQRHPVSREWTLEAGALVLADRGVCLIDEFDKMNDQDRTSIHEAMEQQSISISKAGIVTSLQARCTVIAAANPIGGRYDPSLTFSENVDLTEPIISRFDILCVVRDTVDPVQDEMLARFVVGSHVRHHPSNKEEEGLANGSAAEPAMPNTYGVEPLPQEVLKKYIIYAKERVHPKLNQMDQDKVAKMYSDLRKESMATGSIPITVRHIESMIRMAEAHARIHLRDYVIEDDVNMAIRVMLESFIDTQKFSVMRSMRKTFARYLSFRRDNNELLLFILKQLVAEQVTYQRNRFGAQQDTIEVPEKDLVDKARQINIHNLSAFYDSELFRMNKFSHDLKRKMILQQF
UniProt Q96HR3: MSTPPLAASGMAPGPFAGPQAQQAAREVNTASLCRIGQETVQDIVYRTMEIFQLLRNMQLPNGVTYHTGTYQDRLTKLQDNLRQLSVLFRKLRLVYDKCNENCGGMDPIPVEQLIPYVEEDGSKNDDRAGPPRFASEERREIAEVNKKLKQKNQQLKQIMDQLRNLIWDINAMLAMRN
UniProt Q9BUT9: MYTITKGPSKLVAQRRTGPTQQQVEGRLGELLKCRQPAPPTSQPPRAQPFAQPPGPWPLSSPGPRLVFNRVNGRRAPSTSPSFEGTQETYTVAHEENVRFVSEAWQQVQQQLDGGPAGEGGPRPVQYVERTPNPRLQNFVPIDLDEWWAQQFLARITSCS

Compound in this assay: CS(=O)(=O)CCNCc1ccc(-c2ccc3ncnc(Nc4ccc(OCc5cccc(F)c5)c(Cl)c4)c3c2)o1 [lapatinib]
Description: log2 fold change, soluble protein after heating vs DMSO (PISA); higher = thermal stabilisation; K562 lysate, 10 uM; active = over 0.2 and 3.5 SD of the protein, either way, in both replicates (recomputed). An outline of the steps: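 K562 pellets were dounce-homogenised in PBS pH 7.4 with 1 mM MgCl2, and the crude extract at 1 mg/mL protein was treated with 10 μM compound for 30 min. Aliquots were heated for 3 min across 48°C-58°C, pooled, and brought to 0.5% NP-40 at 4°C; soluble protein was the supernatant after 21,000xg for 90 min. Soluble protein was quantified by TMTpro 16plex LC-MS/MS with channel sums equalised, and reported as log2 fold change in thermal stability against DMSO controls, with values from duplicates.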
As to MCMBP (UniProt Q9BTE3), the log2 fold change is inactive: 0.008.

Turning to MED20 (UniProt Q9H944), the log2 fold change is inactive: 0.085.

For METTL5 (UniProt Q9NRN9), the log2 fold change was inactive: -0.005.

Turning to MDH2 (UniProt P40926), the log2 fold change was inactive: 0.025.

For METTL14 (UniProt Q9HCE5), the log2 fold change is inactive: 0.011.

For MECR (UniProt Q9BV79), the log2 fold change is inactive: -0.028.

For the target METAP1D (UniProt Q6UB28), the log2 fold change is inactive: 0.081.

Turning to MEF2A (UniProt Q02078), the log2 fold change is inactive: -0.191.

For the target MFSD10 (UniProt Q14728), the log2 fold change is inactive: -0.012.

With MCL1 (UniProt Q07820), the log2 fold change was inactive: 0.177.

As for MCM6 (UniProt Q14566), the log2 fold change is inactive: -0.006.

With MED7 (UniProt O43513), the log2 fold change is inactive: 0.039.

Consider MFSD4B (UniProt Q5TF39), for which the log2 fold change is inactive: -0.071.

Regarding ME2 (UniProt P23368), the log2 fold change is inactive: -0.003.

For the target METTL2A (UniProt Q96IZ6), the log2 fold change was inactive: -0.001.

Regarding MFN2 (UniProt O95140), the log2 fold change is inactive: -0.035.

MED8 isoform 2 (UniProt Q96G25): the log2 fold change is inactive: 0.005.

MED4 (UniProt Q9NPJ6): the log2 fold change was inactive: 0.027.

For METTL16 (UniProt Q86W50), the log2 fold change is inactive: -0.075.

Consider MEF2C isoform 5 (UniProt Q06413), for which the log2 fold change is inactive: 0.094.

Consider MCUR1 (UniProt Q96AQ8), for which the log2 fold change was inactive: -0.06.

As for METAP2 (UniProt P50579), the log2 fold change was inactive: -0.002.

Regarding MBD3 (UniProt O95983), the log2 fold change was inactive: -0.014.

On to MBD2 (UniProt Q9UBB5), for which the log2 fold change was inactive: -0.009.

Regarding MED15 (UniProt Q96RN5), the log2 fold change was inactive: 0.016.

As to MCFD2 (UniProt Q8NI22), the log2 fold change was inactive: 0.136.

For the target MCM2 (UniProt P49736), the log2 fold change was inactive: -0.013.

In the case of MEAF6 isoform 3 (UniProt Q9HAF1), the log2 fold change is inactive: 0.054.

In the case of ME3 (UniProt Q16798), the log2 fold change is inactive: 0.086.

For the target MECP2 isoform 2 (UniProt P51608), the log2 fold change was inactive: 0.033.

In the case of MBOAT2 (UniProt Q6ZWT7), the log2 fold change was inactive: -0.067.

For MCM4 (UniProt P33991), the log2 fold change was inactive: -0.018.

MEA1 (UniProt Q16626): the log2 fold change is inactive: 0.103.

As for MFAP1 (UniProt P55081), the log2 fold change is inactive: 0.021.

Turning to MED30 (UniProt Q96HR3), the log2 fold change is inactive: -0.009.

Turning to METTL3 (UniProt Q86U44), the log2 fold change is inactive: -0.005.

MCRIP1 (UniProt I3L4Q0): the log2 fold change was inactive: 0.008.

As for MCRIP2 (UniProt Q9BUT9), the log2 fold change is inactive: 0.02.

On to MEF2D (UniProt Q14814), for which the log2 fold change is inactive: 0.008.

As to MESD (UniProt Q14696), the log2 fold change is inactive: -0.027.

These data come from the supplement of paper PMC10849652.
